PMC5306359
Results are given in words; binding and its absence hold for the method and conditions named. Binding seen in cells or lysates may run through a third protein. Some binding calls cover weakened binding; strength is not graded here. One block for each molecule: values may come before it.

Amino acid sequences for entries named in this document (tags omitted).
UniProt P06537: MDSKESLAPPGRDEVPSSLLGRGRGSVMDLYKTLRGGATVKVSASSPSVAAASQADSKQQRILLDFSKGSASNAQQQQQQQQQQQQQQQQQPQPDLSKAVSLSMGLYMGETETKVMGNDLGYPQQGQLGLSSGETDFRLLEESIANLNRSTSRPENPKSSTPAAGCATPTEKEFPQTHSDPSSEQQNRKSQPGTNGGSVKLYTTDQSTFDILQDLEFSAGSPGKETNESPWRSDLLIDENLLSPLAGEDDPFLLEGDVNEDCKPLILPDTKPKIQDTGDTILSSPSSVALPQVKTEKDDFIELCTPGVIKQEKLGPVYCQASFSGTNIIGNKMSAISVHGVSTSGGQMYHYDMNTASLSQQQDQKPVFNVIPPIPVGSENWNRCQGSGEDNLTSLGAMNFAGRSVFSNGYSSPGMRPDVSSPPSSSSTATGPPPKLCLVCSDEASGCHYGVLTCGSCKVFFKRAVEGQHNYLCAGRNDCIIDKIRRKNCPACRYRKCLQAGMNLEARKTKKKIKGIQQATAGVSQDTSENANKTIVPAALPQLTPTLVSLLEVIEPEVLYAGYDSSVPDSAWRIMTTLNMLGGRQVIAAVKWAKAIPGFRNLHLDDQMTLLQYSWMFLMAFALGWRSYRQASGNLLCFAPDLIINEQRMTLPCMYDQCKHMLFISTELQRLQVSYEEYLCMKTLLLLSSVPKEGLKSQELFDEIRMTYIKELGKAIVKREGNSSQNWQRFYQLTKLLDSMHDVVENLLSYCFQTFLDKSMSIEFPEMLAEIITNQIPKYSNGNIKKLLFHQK
UniProt O54918: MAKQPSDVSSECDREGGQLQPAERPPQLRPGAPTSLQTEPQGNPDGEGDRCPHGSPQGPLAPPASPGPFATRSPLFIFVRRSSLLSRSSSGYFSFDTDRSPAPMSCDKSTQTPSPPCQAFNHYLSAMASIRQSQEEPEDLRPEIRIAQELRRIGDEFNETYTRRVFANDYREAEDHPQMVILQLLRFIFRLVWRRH

Target: glucocorticoid receptor (mouse (endogenous in BALB/c thymocytes)) (UniProt P06537)
Assay: co-IP; anti-GR (clone 8E9) immunoprecipitation overnight, Protein-G, from cytoplasmic and mitochondrial fractions of unseparated mouse thymocytes treated 30 min with DX or vehicle; western blot for Bak, Bcl-xL, Bim; washed five times in PBS

- binding: binds
Molecule: Bim (from UniProt O54918 1-196)

- binding: binds
Molecule: Bcl-xL (from UniProt Q64373-1 1-233)

- binding: binds
B1: Bak (protein, UniProt O08734 1-209)
chain: MASGQGPGPPKVGCDESPSPSEQQVAQDTEEVFRSYVFYLHQQEQETQGAAAPANPEMDNLPLEPNSILGQVGRQLALIGDDINRRYDTEFQNLLEQLQPTAGNAYELFTKIASSLFKSGISWGRVVALLGFGYRLALYVYQRGLTGFLGQVTCFLADIILHHYIARWIAQRGGWVAALNFRRDPILTVMVIFGVVLLGQFVVHRFFRS
